Measurements published in the supplement of paper PMC6411743.
± gives the standard deviation of the averaged measurements. The entries are a selection whose mix differs from that of the whole data set.

Amino acid sequences for entries named in this document (tags omitted). A change or cut given only in a name is not applied to a line headed by its entry.
UniProt P28482, whole entry: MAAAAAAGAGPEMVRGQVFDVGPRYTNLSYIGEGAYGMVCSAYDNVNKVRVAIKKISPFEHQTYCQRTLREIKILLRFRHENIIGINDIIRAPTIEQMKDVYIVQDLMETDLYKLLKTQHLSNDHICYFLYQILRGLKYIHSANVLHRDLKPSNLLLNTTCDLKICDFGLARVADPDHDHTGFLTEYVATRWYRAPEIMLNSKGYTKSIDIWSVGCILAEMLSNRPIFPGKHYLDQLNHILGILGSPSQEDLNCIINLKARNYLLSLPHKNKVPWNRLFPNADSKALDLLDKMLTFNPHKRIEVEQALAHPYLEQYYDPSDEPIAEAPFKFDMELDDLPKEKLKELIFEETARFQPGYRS
UniProt P26374: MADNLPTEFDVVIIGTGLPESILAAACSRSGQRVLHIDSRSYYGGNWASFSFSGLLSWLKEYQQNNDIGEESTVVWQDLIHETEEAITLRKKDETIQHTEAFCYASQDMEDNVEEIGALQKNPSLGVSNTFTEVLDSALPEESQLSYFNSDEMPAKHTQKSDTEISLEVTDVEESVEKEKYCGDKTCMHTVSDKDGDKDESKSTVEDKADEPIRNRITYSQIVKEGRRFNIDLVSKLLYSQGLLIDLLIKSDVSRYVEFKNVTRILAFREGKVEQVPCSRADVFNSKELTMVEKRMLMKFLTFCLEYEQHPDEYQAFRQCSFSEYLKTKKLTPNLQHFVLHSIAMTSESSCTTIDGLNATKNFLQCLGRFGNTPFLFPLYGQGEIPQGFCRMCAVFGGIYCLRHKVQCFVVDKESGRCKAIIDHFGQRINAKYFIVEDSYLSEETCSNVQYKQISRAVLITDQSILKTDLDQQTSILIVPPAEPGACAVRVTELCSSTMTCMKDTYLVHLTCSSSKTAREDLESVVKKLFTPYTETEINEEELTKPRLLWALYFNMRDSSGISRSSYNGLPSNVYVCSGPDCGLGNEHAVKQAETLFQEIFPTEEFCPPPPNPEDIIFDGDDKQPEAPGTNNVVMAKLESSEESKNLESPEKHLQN
UniProt P23919: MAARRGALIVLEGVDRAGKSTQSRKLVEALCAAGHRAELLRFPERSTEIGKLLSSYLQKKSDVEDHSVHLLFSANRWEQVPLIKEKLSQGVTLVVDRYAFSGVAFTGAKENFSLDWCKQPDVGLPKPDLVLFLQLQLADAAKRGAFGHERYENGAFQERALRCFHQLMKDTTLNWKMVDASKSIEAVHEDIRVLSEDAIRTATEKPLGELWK
UniProt P32121, whole entry: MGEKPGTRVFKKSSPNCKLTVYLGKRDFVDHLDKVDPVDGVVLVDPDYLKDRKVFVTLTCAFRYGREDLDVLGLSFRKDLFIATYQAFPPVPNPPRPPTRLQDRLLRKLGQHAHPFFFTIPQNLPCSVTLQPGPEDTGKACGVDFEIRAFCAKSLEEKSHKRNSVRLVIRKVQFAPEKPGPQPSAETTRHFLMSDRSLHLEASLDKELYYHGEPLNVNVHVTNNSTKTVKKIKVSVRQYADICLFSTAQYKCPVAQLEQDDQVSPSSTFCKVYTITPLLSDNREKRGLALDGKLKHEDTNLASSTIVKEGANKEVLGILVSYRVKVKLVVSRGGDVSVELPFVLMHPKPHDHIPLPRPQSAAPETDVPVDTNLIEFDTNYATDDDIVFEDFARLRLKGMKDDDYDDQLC
UniProt P23246: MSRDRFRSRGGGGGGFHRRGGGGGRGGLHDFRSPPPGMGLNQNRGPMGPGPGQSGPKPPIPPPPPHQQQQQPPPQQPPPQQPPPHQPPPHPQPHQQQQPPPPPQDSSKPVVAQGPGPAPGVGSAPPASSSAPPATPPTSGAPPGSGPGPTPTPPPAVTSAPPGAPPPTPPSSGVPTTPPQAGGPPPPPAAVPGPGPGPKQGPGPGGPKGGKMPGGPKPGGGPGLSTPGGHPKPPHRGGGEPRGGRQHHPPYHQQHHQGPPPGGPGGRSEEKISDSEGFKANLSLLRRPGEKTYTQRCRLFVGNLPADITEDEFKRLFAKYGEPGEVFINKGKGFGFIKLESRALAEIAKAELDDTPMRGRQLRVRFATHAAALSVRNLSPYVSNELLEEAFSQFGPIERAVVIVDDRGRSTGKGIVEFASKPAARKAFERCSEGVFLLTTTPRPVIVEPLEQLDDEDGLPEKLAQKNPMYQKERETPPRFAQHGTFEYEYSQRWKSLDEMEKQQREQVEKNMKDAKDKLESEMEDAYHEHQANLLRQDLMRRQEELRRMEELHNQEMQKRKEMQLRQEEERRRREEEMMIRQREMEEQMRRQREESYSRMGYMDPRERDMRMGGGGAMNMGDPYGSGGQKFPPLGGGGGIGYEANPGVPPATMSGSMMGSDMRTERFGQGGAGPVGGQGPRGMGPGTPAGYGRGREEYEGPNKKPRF
UniProt P35573: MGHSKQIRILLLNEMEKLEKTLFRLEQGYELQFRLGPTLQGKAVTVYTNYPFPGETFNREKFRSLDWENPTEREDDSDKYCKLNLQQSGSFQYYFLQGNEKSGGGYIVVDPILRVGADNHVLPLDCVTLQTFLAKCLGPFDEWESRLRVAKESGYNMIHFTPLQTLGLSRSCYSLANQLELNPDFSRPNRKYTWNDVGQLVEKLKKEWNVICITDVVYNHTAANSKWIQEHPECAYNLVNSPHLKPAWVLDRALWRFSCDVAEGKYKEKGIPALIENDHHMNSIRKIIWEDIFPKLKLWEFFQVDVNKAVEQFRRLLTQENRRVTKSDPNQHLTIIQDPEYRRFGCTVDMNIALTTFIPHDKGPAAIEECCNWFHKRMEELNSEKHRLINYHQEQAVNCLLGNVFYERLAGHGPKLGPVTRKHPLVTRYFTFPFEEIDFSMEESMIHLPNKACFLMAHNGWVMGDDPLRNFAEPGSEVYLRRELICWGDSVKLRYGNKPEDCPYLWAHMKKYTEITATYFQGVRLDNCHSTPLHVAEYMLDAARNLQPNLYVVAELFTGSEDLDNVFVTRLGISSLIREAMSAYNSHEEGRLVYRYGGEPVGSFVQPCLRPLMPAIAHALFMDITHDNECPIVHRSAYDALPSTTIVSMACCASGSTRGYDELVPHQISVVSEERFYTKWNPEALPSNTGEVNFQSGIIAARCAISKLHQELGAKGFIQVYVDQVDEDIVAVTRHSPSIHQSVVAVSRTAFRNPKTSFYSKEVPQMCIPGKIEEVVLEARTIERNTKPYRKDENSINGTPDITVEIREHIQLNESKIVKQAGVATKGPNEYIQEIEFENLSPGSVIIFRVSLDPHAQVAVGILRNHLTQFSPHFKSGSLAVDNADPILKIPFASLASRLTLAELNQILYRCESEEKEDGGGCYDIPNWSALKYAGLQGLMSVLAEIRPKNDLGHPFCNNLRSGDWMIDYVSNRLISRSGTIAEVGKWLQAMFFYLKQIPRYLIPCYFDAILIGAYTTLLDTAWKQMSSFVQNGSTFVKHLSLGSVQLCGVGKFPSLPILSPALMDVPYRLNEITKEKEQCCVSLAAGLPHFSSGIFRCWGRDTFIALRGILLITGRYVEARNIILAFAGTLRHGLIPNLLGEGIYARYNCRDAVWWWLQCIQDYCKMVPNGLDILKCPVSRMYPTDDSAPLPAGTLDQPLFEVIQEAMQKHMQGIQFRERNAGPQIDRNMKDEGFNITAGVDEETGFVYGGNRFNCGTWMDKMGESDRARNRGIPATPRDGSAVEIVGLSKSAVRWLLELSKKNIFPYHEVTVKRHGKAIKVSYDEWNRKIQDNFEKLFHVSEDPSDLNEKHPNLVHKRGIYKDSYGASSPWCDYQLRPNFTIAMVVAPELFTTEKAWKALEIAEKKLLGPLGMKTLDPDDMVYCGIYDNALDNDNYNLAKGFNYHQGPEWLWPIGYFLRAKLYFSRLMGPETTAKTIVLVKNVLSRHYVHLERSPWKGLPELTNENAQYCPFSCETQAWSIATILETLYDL
UniProt P17152: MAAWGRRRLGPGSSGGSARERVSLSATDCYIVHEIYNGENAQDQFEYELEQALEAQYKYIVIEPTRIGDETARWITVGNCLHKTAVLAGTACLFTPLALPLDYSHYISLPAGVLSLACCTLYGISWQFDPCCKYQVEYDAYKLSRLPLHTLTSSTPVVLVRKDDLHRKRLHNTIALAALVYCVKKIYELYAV
UniProt P24588, whole entry: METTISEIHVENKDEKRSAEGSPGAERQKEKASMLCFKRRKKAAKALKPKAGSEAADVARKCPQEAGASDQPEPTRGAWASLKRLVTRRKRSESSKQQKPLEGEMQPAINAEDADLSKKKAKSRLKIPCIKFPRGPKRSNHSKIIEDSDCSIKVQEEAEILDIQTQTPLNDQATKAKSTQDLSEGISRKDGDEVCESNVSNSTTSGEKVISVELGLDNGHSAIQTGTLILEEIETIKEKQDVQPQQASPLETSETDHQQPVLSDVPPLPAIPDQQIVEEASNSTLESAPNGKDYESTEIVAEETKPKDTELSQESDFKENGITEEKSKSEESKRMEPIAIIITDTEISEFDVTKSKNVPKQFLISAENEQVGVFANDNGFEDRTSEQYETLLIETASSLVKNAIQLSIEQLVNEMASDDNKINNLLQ
UniProt P33908: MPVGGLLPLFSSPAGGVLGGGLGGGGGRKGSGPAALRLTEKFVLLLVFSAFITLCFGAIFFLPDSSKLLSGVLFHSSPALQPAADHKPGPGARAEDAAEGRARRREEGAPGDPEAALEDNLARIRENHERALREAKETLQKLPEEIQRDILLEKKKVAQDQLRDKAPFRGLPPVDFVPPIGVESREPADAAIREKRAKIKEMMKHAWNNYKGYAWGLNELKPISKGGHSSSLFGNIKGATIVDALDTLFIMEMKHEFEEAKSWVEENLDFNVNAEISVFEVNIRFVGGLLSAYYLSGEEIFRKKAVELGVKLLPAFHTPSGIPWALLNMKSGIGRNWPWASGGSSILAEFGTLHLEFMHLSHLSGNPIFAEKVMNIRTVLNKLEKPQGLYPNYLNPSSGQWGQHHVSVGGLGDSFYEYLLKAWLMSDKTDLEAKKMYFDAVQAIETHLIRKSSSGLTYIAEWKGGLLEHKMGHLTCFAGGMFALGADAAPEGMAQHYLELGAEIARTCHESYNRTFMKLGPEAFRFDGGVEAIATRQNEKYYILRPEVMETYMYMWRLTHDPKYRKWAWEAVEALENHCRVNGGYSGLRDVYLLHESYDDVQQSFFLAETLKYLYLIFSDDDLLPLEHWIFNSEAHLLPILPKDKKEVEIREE
UniProt P23511, whole entry: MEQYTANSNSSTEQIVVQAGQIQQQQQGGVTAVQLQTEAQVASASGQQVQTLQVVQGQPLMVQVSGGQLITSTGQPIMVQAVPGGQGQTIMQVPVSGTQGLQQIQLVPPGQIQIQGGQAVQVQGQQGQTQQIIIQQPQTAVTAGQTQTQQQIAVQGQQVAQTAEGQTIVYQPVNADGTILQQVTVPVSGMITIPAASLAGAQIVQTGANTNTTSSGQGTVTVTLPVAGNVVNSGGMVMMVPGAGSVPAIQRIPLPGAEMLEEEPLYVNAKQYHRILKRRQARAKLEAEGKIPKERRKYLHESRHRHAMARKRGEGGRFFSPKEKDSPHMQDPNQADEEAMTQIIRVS
UniProt P19022: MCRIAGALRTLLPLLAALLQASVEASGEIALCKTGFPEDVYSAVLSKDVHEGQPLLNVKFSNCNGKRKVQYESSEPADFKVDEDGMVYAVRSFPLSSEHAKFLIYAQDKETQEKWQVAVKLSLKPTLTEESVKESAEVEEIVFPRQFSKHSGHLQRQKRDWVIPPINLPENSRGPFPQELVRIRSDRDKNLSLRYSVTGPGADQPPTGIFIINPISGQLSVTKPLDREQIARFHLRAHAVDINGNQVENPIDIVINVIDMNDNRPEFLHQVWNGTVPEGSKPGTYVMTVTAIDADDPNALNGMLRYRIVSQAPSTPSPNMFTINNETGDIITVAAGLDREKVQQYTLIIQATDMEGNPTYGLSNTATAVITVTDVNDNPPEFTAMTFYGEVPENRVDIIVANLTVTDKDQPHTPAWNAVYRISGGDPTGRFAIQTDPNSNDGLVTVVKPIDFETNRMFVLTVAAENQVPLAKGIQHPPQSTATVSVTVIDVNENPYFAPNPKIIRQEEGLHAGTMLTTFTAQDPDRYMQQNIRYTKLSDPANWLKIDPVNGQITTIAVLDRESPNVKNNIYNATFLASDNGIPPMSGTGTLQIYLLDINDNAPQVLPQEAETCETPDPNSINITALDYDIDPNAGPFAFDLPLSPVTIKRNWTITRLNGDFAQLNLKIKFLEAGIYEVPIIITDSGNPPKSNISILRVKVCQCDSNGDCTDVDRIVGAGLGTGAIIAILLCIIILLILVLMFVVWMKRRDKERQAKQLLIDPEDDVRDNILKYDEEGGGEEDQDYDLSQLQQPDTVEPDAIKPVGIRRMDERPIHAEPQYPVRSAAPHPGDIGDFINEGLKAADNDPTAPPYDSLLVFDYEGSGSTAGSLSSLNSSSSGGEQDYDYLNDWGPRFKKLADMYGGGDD

Compound: Nc1ncnc2c1ncn2[C@@H]1O[C@H](COP(=O)(O)OP(=O)(O)NP(=O)(O)O)[C@@H](O)[C@H]1O [adenylyl imidodiphosphate]
Experiment: NP40-soluble protein abundance relative to vehicle (solubility fold change) (ratio); higher = more soluble protein in presence of AMP-PNP
Summary of the method: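 Jurkat crude lysate (Dounce-homogenised) was treated with eight concentrations from 0.1 to 10 mM for 10 min at room temperature, then 3 min at 37 °C. It was solubilised with 0.8% NP40 and benzonase (60 min, 4 °C) and ultracentrifuged, and the supernatant was TMT-labelled for LC-MS/MS. Intensities were vsn-normalised, and the value is the fold change against the NP40-processed vehicle per replicate, from three independent experiments.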

| Target | NP40-soluble protein abundance (concentration: 1mM) | NP40-soluble protein abundance (concentration: 2mM) | NP40-soluble protein abundance (concentration: 4mM) | NP40-soluble protein abundance (concentration: 6mM) | NP40-soluble protein abundance (concentration: 8mM) | NP40-soluble protein abundance (concentration: 10mM) |
| --- | --- | --- | --- | --- | --- | --- |
| UniProt P28482 | 0.972 ± 0.033 | 0.905 ± 0.077 | 0.9497 ± 0.0082 | 1.02 ± 0.067 | 1.01 ± 0.058 | 0.968 ± 0.037 |
| CHML (UniProt P26374) | 0.984 ± 0.012 | 1 ± 0.019 | 1.01 ± 0.048 | 0.983 ± 0.018 | 0.979 ± 0.028 | 0.9504 ± 0.0073 |
| CBL (UniProt P22681) | 1.03 ± 0.051 | 1.04 ± 0.059 | 1.04 ± 0.058 | 1.04 ± 0.053 | 1.05 ± 0.043 | 1.07 ± 0.013 |
| DTYMK (UniProt P23919) | 0.975 ± 0.027 | 0.936 ± 0.02 | 0.9823 ± 0.0086 | 1.01 ± 0.056 | 0.998 ± 0.03 | 1.012 ± 0.004 |
| UniProt P28907 | 0.995 ± 0.015 | 1.06 ± 0.11 | 0.98 ± 0.034 | 1.01 ± 0.037 | 0.975 ± 0.019 | 0.978 ± 0.069 |
| UniProt P32121 and related entries | 1.05 ± 0.017 | 1.06 ± 0.017 | 1.086 ± 0.0093 | 1.13 ± 0.061 | 1.14 ± 0.026 | 1.16 ± 0.047 |
| UniProt P35658 and related entries | 1.03 ± 0.018 | 1.07 ± 0.069 | 1.04 ± 0.046 | 1.03 ± 0.017 | 1.04 ± 0.025 | 1.11 ± 0.084 |
| PPIB (UniProt P23284) | 0.9991 ± 0.0043 | 0.997 ± 0.021 | 0.975 ± 0.02 | 1.09 ± 0.044 | 1.08 ± 0.025 | 1.08 ± 0.022 |
| SFPQ (UniProt P23246) | 1.15 ± 0.054 | 1.25 ± 0.076 | 1.41 ± 0.12 | 1.68 ± 0.26 | 1.75 ± 0.28 | 2.02 ± 0.41 |
| UniProt P28065 and related entries | 0.967 ± 0.022 | 0.975 ± 0.042 | 0.959 ± 0.031 | 0.955 ± 0.031 | 0.949 ± 0.033 | 0.968 ± 0.031 |
| UniProt P31327 and related entries | 1 ± 0.016 | 0.979 ± 0.012 | 0.9848 ± 0.0059 | 0.9894 ± 0.0069 | 0.998 ± 0.03 | 0.989 ± 0.022 |
| AGL (UniProt P35573) | 1.04 ± 0.077 | 0.999 ± 0.11 | 1.1 ± 0.12 | 1.08 ± 0.16 | 1.17 ± 0.17 | 1.18 ± 0.23 |
| TMEM11 (UniProt P17152) | 0.943 ± 0.042 | 0.883 ± 0.09 | 0.947 ± 0.02 | 0.931 ± 0.015 | 0.94 ± 0.037 | 0.908 ± 0.039 |
| AKAP5 (UniProt P24588) | 0.994 ± 0.015 | 1.02 ± 0.049 | 0.981 ± 0.043 | 0.997 ± 0.017 | 0.985 ± 0.026 | 1.014 ± 0.0024 |
| MAN1A1 (UniProt P33908) | 0.946 ± 0.013 | 0.968 ± 0.049 | 0.976 ± 0.025 | 0.943 ± 0.03 | 0.97 ± 0.039 | 0.929 ± 0.021 |
| KIF5B (UniProt P33176) | 1.02 ± 0.023 | 1.05 ± 0.067 | 0.9984 ± 0.0049 | 1 ± 0.03 | 0.978 ± 0.027 | 0.985 ± 0.037 |
| UniProt P22694 and related entries | 0.983 ± 0.016 | 0.947 ± 0.042 | 0.973 ± 0.016 | 0.984 ± 0.041 | 0.98 ± 0.013 | 0.964 ± 0.054 |
| UniProt P20701 and related entries | 1 ± 0.025 | 1.03 ± 0.096 | 1.04 ± 0.04 | 1.06 ± 0.072 | 1.03 ± 0.062 | 1.09 ± 0.076 |
| UniProt P23229 and related entries | 1.03 ± 0.054 | 1.08 ± 0.084 | 1.03 ± 0.036 | 1.03 ± 0.049 | 1 ± 0.038 | 1.01 ± 0.069 |
| UniProt P23511 and related entries | 0.944 ± 0.036 | 1.1 ± 0.29 | 0.917 ± 0.029 | 0.985 ± 0.092 | 0.97 ± 0.058 | 0.953 ± 0.055 |
| ATP6V1A (UniProt P38606) | 0.969 ± 0.012 | 0.898 ± 0.078 | 0.946 ± 0.027 | 0.9602 ± 0.0071 | 0.978 ± 0.021 | 0.935 ± 0.048 |
| PSMC2 (UniProt P35998) | 0.942 ± 0.053 | 0.927 ± 0.05 | 0.907 ± 0.086 | 0.919 ± 0.084 | 0.908 ± 0.072 | 0.928 ± 0.12 |
| RFC2 (UniProt P35250) | 1.06 ± 0.047 | 1.03 ± 0.08 | 1.11 ± 0.058 | 1.17 ± 0.018 | 1.2 ± 0.056 | 1.23 ± 0.088 |
| STOM (UniProt P27105) | 0.984 ± 0.012 | 0.977 ± 0.03 | 0.962 ± 0.026 | 0.99 ± 0.03 | 0.973 ± 0.024 | 0.948 ± 0.045 |
| UniProt P20290 and related entries | 1.02 ± 0.024 | 1.08 ± 0.07 | 1.1 ± 0.043 | 1.15 ± 0.074 | 1.19 ± 0.073 | 1.25 ± 0.082 |
| UniProt P19022 and related entries | 0.971 ± 0.013 | 1.03 ± 0.1 | 1.02 ± 0.014 | 0.985 ± 0.038 | 0.987 ± 0.067 | 0.965 ± 0.033 |
| AHCY (UniProt P23526) | 0.965 ± 0.027 | 0.878 ± 0.12 | 0.952 ± 0.025 | 1 ± 0.039 | 1.03 ± 0.025 | 0.954 ± 0.023 |
| ZKSCAN1 (UniProt P17029) | 1.02 ± 0.028 | 1.01 ± 0.078 | 0.966 ± 0.042 | 0.934 ± 0.017 | 0.921 ± 0.06 | 0.917 ± 0.034 |
| IGFBP2 (UniProt P18065) | 1.03 ± 0.034 | 1.03 ± 0.058 | 1.01 ± 0.067 | 0.966 ± 0.0077 | 0.991 ± 0.021 | 0.957 ± 0.014 |
| HNRNPA2B1 (UniProt P22626) | 1.03 ± 0.16 | 1.01 ± 0.089 | 0.991 ± 0.23 | 1.03 ± 0.21 | 1.08 ± 0.17 | 1.03 ± 0.13 |

Looked up one by one from the entries so far (2):

| Target | NP40-soluble protein abundance (concentration: 1mM) | NP40-soluble protein abundance (concentration: 2mM) | NP40-soluble protein abundance (concentration: 4mM) | NP40-soluble protein abundance (concentration: 6mM) | NP40-soluble protein abundance (concentration: 8mM) | NP40-soluble protein abundance (concentration: 10mM) |
| --- | --- | --- | --- | --- | --- | --- |
| SFPQ (UniProt P23246) | 1.15 ± 0.054 | 1.25 ± 0.076 | 1.41 ± 0.12 | 1.68 ± 0.26 | 1.75 ± 0.28 | 2.02 ± 0.41 |
| TMEM11 (UniProt P17152) | 0.943 ± 0.042 | 0.883 ± 0.09 | 0.947 ± 0.02 | 0.931 ± 0.015 | 0.94 ± 0.037 | 0.908 ± 0.039 |
